According to patent publication US10064901B2, “Compositions and methods” (priority 2013, dated 2018):
Like-named read-outs stand apart in the source and are kept apart here.

Type: in vivo, mouse

Row | Substance | OTU sequence reads after dosing (OTU-level analysis, Table TAB) (Day −1 vs Days 2, 3, 4) | further results
1 | Clostridium_butyricum |  | OTU sequence reads after dosing (OTU-level analysis, Table TAB) (mouse, in vivo): subsequent and large numbers of sequence reads on Days 2, 3, or 4
2 | Clostridium_disporicum |  | increase of sequence reads (Day −1 vs Days 2, 3 or 4): ≤ 1000 fold
3 | Clostridium_mayombei | not detectable at the OTU level | 
4 | Clostridium_symbiosum | subsequent and large numbers of sequence reads on Days 2, 3, or 4 | 
